{
  "sequences": {"note": "The chains behind the UniProt entries cited, without tags or fusion partners.", "UniProt A0A1V0AG67, entry or part of it": "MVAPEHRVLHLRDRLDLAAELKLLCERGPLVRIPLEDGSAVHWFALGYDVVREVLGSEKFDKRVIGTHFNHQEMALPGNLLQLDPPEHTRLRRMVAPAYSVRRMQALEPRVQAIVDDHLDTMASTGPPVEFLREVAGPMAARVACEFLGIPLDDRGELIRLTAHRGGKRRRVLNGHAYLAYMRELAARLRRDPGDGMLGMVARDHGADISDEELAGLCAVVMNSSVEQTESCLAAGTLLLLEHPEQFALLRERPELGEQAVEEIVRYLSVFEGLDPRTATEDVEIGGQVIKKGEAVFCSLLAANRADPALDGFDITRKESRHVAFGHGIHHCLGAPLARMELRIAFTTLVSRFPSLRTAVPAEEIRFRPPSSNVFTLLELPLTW"},
  "source": "paper PMC9023744",
  "about": "“The Cytochrome P450 OxyA from the Kistamicin Biosynthesis Cyclization Cascade is Highly Sensitive to Oxidative Damage” (Frontiers in Chemistry, 2022)",
  "key": {"[1]": {"target": "T1, OxyCkis", "T1 construct": "gene OxyC", "conditions": "50 mM Tris-HCl pH 8, 30°C; 2.5 µM enzyme; DMSO"}, "[2]": {"target": "T2, OxyAkis ([Actinomadura] parvosata, UniProt A0A1V0AG67)", "T2 construct": "gene BKM31_54160; pET28a, His-tagged, expressed in E. coli Arctic Express; Ni-NTA, anion exchange, size exclusion", "assay": "UV-visible difference spectroscopy titration, one-site model", "format": "binding"}},
  "data": [
    {"compound": "Clc1ccccc1C(c1ccccc1)(c1ccccc1)n1ccnc1", "note": "[clotrimazole]", "values": [
      {"measurement": "Kd", "setting": "[1]", "result": "22.5 ± 3.2", "unit": "µM"},
      {"measurement": "Kd", "setting": "[2]", "result": "272 ± 88.4", "unit": "µM"}
    ]}
  ]
}
